Laboratory results as given in patent US20140302055A1.

Sequences of proteins named here, by UniProt entry; tags and fusion partners are left off. A change or cut given only in a name is not applied to a line headed by its entry.
UniProt Q9BY76: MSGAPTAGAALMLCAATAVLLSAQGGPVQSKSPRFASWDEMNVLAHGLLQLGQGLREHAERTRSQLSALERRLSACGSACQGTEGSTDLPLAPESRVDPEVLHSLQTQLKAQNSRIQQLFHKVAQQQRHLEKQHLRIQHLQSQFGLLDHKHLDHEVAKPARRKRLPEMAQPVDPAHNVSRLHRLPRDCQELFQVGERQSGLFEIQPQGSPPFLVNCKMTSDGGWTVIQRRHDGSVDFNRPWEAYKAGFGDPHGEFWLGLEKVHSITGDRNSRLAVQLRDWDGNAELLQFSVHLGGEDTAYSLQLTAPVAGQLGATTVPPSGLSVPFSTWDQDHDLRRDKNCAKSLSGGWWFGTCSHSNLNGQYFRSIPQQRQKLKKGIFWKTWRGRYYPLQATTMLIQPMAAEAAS

Legend:
[1] = molecular target: Angiopoietin-like protein 4 (ANGPTL4), recombinant V5-his tagged secreted product (UniProt Q9BY76); experiment: ELISA, coated ANGPTL4, hybridoma supernatant, hIgG detection
[2] = molecular target: Angiopoietin-like protein 4 (ANGPTL4), recombinant V5-his tagged secreted product (UniProt Q9BY76); experiment: ELISA, coated ANGPTL4, hybridoma supernatant, hK detection

Binder | binding [1] | binding [2]
anti-ANGPTL4 monoclonal antibody 1.10.1 (antibody, human IgG2, V domains shown) VH: QVQLVQSGAEVKKPGASVKDSCKASGFTFTSYGISWVRQAPGQGLEWMGWISAYNGNKNYAQKLQGRVTMTTDTSTSTAYMELRSLRSDDTAVYYCARDDCSRASCSYYYGMDVWGQGTAVTVSS VL: DIVMTQTPLSLAVTPGQPASISCKSSQSLLHSDRKTYLYWYLQKPGQPPQLLIYEVSNRFSGVPDRFSGSGSGTDFTLKISRVEAEDVGVYYCMQSIQLPWTFGQGTKVEIKR | binds | binds
anti-ANGPTL4 monoclonal antibody 1.7.1 (antibody, human IgG2, V domains shown) VH: QVQLVESGGGVVQPGRSLRLSCAASGFTFSSYGIHWIRQAPGKGLEWVAVIWYDGSHKYYADSVKGRFTISRDNSKNTLYLQMNSLRAEDTAVYYCARDGITMVRGVLYYFYGMDVWGQGTTVTVSS VL: DIQMTQSPSSLSASVGDRVTITCRASQGISNYLAWYQQKPGKVPKLLIYAASTLQSGVPSRFSGSGSGTDFTLTISSLQPEDFATYYCQEFNSAPLTFGGGTKVEIKR | binds | binds
anti-ANGPTL4 monoclonal antibody 1.7.3 (antibody, human IgG2, V domains shown) VH: QVQLVESGGGVVQPGRSLRLSCAASGFTFSSYGIHWIRQAPGKGLEWVAVIWYDGSHKYYADSVKGRFTISRDNSKNTLYLQMNSLRAEDTAVYYCARDGITMVRGVLYYFYGMDVWGQGTTVTVSS VL: DIQMTQSPSSLSASVGDRVTITCRASQGISNYLAWYQQKPGKVPKLLIYAASTLQSGVPSRFSGSGSGTDFTLTISSLQPEDFATYYCQEFNSAPLTFGGGTKVEIKR | binds | binds
anti-ANGPTL4 monoclonal antibody 1.7.2 (antibody, human IgG2, V domains shown) VH: QVQLVESGGGVVQPGRSLRLSCAASGFTFSSYGIHWIRQAPGKGLEWVAVIWYDGSHKYYADSVKGRFTISRDNSKNTLYLQMNSLRAEDTAVYYCARDGITMVRGVLYYFYGMDVWGQGTTVTVSS VL: DIQMTQSPSSLSASVGDRVTITCRASQGISNYLAWYQQKPGKVPKLLIYAASTLQSGVPSRFSGSGSGTDFTLTISSLQPEDFATYYCQEFNSAPLTFGGGTKVEIKR | binds | binds

Further lines, results first:

binding [1] | binding [2] | Binder
binds | binds | anti-ANGPTL4 monoclonal antibody 2.2.1 (antibody, human IgG2, V domains shown) VH: EVQLVESGGGLVKPGGSLRLSCAASGFTFSSYSMNWVRQAPGKGLEWVSSISSSSTYIYYADSVKGRFTISRDNAKNSLYLQMNSLRAEDTAVYYCARDGAIFGVVNWYFDLWGRGT VL: EIVLTQSPDFQSVTPKEKVTITCRASQSIGSSLHWYQQKPDQSPKLLIKYASQSFSGVPSRFSGSGSGTDFTLTINSLEAEDAATYYCHQSSNLPHTFGPGTKVDIKR
binds | binds | anti-ANGPTL4 monoclonal antibody 2.5.1 (antibody, human IgG2, V domains shown) VH: EVQLVESGGGLVKPGGSLRLSCAASGFTFSSYSMNWVRQAPGKGLEWVSSISSSSSYIYYADSVKGRFTISRDNAKNSLYLQMNSLRAEDTAVYYCARDGAIFGVVNWYFDLWGRGT VL: EIVLTQSPDFQSVTPKEKVTITCRASQSIGSSLHWYQLKPDQSPKLLIKYVSQSFSGVPSRFSGSGSGTDFTLTISSLEAEDAATYCCHQSSSLPHTFGPGTKVDINR
binds | binds | anti-ANGPTL4 monoclonal antibody 2.4.1 (antibody, human IgG2, V domains shown) VH: QVQLQESGPGLVKPSETLSLTCIVSGDSISGYYWSWIRQPAGKGLEWIGRIYTSGNTIYNPSLKSRVTMSVDTSKNQFSLKLSSVTAADTAVYYCARERPDYGGNFFDYWGQGTLVTVSS VL: EIVLTQSPDFQSVTPKEKVTITCRASQSIGSSLHWYQQKPDQSPKLLIKHASQSFSGVPSRFSGSGSGTDFTLTINSLEAEDAATYYCHQSSSLPHTFGGGTKVEIKR
binds | binds | anti-ANGPTL4 monoclonal antibody 1.10.2 (antibody, human IgG2, V domains shown) VH: QVQLVQSGAEVKKPGASVKDSCKASGFTFTSYGISWVRQAPGQGLEWMGWISAYNGNKNYAQKLQGRVTMTTDTSTSTAYMELRSLRSDDTAVYYCARDDCSRASCSYYYGMDVWGQGTAVTVSS VL: DIVMTQTPLSLAVTPGQPASISCKSSQSLLHSDRKTYLYWYLQKPGQPPQLLIYEVSNRFSGVPDRFSGSGSGTDFTLKISRVEAEDVGVYYCMQSIQLPWTFGQGTKVEIKR
binds | binds | anti-ANGPTL4 monoclonal antibody 1.10.3 (antibody, human IgG2, V domains shown) VH: QVQLVQSGAEVKKPGASVKDSCKASGFTFTSYGISWVRQAPGQGLEWMGWISAYNGNKNYAQKLQGRVTMTTDTSTSTAYMELRSLRSDDTAVYYCARDDCSRASCSYYYGMDVWGQGTAVTVSS VL: DIVMTQTPLSLAVTPGQPASISCKSSQSLLHSDRKTYLYWYLQKPGQPPQLLIYEVSNRFSGVPDRFSGSGSGTDFTLKISRVEAEDVGVYYCMQSIQLPWTFGQGTKVEIKR
binds | binds | anti-ANGPTL4 monoclonal antibody 2.3.1 (antibody, human IgG2, V domains shown) VH: QVQLVQSGPEVKKPGASVKVSCKASGYTFTSYGINWVRQAPGQGLEWMGWIGTYNGNRNYAQKLQGRVTMTTDTSTSTAYMELRSLRSDDTAVYYCARDDFWSGYYDYFDYWGQGTLVTVSS VL: DIQMTQSPSSLSASVGDRVTITCRASQDINNYLAWYQQKPGKVPKLLIYAASTLQSGVPSRFSGSGSGTDFTLSISSLQPEDVATYYCQKYNSAPRTFGQGTKVEIKR

These are yes or no findings as the source states them, for the method shown. Binding can be weak; no strength is given.
